Assay results taken from the supplement of paper PMC8728848.
This is one part of the list.

Legend:
Experiment in all cases: glycan array binding signal (z-score within array); higher = stronger binding
Details in all cases: glycan notation: IUPAC condensed, linker removed
[1] = target: Gal(a1-3)[Gal(a1-4)]Gal(b1-4)GlcNAc
Outline: (§1)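 Glycan array data came from 3228 arrays in the Consortium for Functional Glycomics database, and only arrays with an available protein sequence were kept. Glycan names were put into IUPAC-condensed notation, and columns mapping to the same glycan were averaged. The binding signal is a within-array Z-score, averaged across arrays of one protein sequence run at different concentrations or buffers and across linkers. A negative Z-score can be read as non-binding.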

[2] = target: Gal(a1-4)Gal(b1-3)GlcNAc(b1-2)Man(a1-3)[Gal(a1-4)Gal(b1-3)GlcNAc(b1-2)Man(a1-6)]Man(b1-4)GlcNAc(b1-4)GlcNAc
Outline: as §1

[3] = target: Gal(a1-4)Gal(b1-4)Glc
Outline: as §1

[4] = target: Gal(a1-4)Gal(b1-4)GlcNAc
Outline: as §1

[5] = target: Gal(a1-4)Gal(b1-4)GlcNAc(b1-2)Man(a1-3)[Gal(a1-4)Gal(b1-4)GlcNAc(b1-2)Man(a1-6)]Man(b1-4)GlcNAc(b1-4)GlcNAc
Outline: as §1

[6] = target: Gal(a1-4)Gal(b1-4)GlcNAc(b1-3)Gal(b1-4)Glc
Outline: as §1

[7] = target: Gal(a1-4)GlcNAc
Outline: as §1

[8] = target: Gal(a1-6)Glc
Outline: as §1

[9] = target: Gal(b1-2)Gal
Outline: as §1

[10] = target: Gal(b1-3)Gal
Outline: as §1

[11] = target: Gal(b1-3)Gal(b1-4)GlcNAc
Outline: as §1

[12] = target: Gal(b1-3)GalNAc
Outline: as §1

[13] = target: Gal(b1-3)GalNAc(a1-3)[Fuc(a1-2)]Gal(b1-4)Glc
Outline: as §1

[14] = target: Gal(b1-3)GalNAc(a1-3)[Fuc(a1-2)]Gal(b1-4)GlcNAc
Outline: as §1

[15] = target: Gal(b1-3)GalNAc(b1-3)Gal
Outline: as §1

[16] = target: Gal(b1-3)GalNAc(b1-3)Gal(a1-4)Gal(b1-4)Glc
Outline: as §1

[17] = target: Gal(b1-3)GalNAc(b1-4)Gal(b1-4)Glc
Outline: as §1

[18] = target: Gal(b1-3)GalNAc(b1-4)[Neu5Ac(a2-3)]Gal(b1-4)Glc
Outline: as §1

[19] = target: Gal(b1-3)GlcNAc
Outline: as §1

[20] = target: Gal(b1-3)GlcNAc(a1-3)Gal(b1-4)GlcNAc
Outline: as §1

[21] = target: Gal(b1-3)GlcNAc(a1-6)Gal(b1-4)GlcNAc
Outline: as §1

[22] = target: Gal(b1-3)GlcNAc(b1-2)Man
Outline: as §1

[23] = target: Gal(b1-3)GlcNAc(b1-2)Man(a1-3)[Gal(b1-3)GlcNAc(b1-2)Man(a1-6)]Man(b1-4)GlcNAc(b1-4)GlcNAc
Outline: as §1

[24] = target: Gal(b1-3)GlcNAc(b1-2)Man(a1-3)[Gal(b1-3)GlcNAc(b1-2)Man(a1-6)]Man(b1-4)GlcNAc(b1-4)[Fuc(a1-6)]GlcNAc
Outline: as §1

[25] = target: Gal(b1-3)GlcNAc(b1-2)Man(a1-3)[GlcNAc(b1-4)][Gal(b1-3)GlcNAc(b1-2)Man(a1-6)]Man(b1-4)GlcNAc(b1-4)GlcNAc
Outline: as §1

[26] = target: Gal(b1-3)GlcNAc(b1-2)[Gal(b1-3)GlcNAc(b1-6)]Man(a1-6)[Gal(b1-3)GlcNAc(b1-2)Man(a1-3)]Man(b1-4)GlcNAc(b1-4)GlcNAc
Outline: as §1

[27] = target: Gal(b1-3)GlcNAc(b1-3)Gal(b1-3)GlcNAc
Outline: as §1

[28] = target: Gal(b1-3)GlcNAc(b1-3)Gal(b1-4)Glc
Outline: as §1

[29] = target: Gal(b1-3)GlcNAc(b1-3)Gal(b1-4)GlcNAc
Outline: as §1

[30] = target: Gal(b1-3)GlcNAc(b1-3)Gal(b1-4)GlcNAc(b1-2)Man(a1-3)[Gal(b1-3)GlcNAc(b1-3)Gal(b1-4)GlcNAc(b1-2)Man(a1-6)]Man(b1-4)GlcNAc(b1-4)GlcNAc
Outline: as §1

[31] = target: Gal(b1-3)GlcNAc(b1-3)Gal(b1-4)GlcNAc(b1-2)[Gal(b1-3)GlcNAc(b1-3)Gal(b1-4)GlcNAc(b1-6)]Man(a1-6)[Gal(b1-3)GlcNAc(b1-3)Gal(b1-4)GlcNAc(b1-2)Man(a1-3)]Man(b1-4)GlcNAc(b1-4)[Fuc(a1-6)]GlcNAc
Outline: as §1

[32] = target: Gal(b1-3)GlcNAc(b1-3)Gal(b1-4)GlcNAc(b1-3)Gal(b1-4)GlcNAc(b1-2)[Gal(b1-3)GlcNAc(b1-3)Gal(b1-4)GlcNAc(b1-3)Gal(b1-4)GlcNAc(b1-6)]Man(a1-6)[Gal(b1-3)GlcNAc(b1-3)Gal(b1-4)GlcNAc(b1-3)Gal(b1-4)GlcNAc(b1-2)Man(a1-3)]Man(b1-4)GlcNAc(b1-4)[Fuc(a1-6)]GlcNAc
Outline: as §1

[33] = target: Gal(b1-3)GlcNAc(b1-3)Gal(b1-4)GlcNAc(b1-6)[Gal(b1-3)GlcNAc(b1-3)]Gal(b1-4)Glc
Outline: as §1

[34] = target: Gal(b1-3)GlcNAc(b1-3)Gal(b1-4)[Fuc(a1-3)]GlcNAc
Outline: as §1

[35] = target: Gal(b1-3)GlcNAc(b1-3)Gal(b1-4)[Fuc(a1-3)]GlcNAc(b1-6)[Gal(b1-3)GlcNAc(b1-3)]Gal(b1-4)Glc
Outline: as §1

[36] = target: Gal(b1-3)GlcNAc(b1-3)GalNAc
Outline: as §1

[37] = target: Gal(b1-3)GlcNAc(b1-6)Gal(b1-4)GlcNAc
Outline: as §1

[38] = target: Gal(b1-3)GlcNAc(b1-6)GalNAc
Outline: as §1

B1: PX14375D-bvu-513-34-513 (Bacteroides vulgatus) (protein)
chain: TEDTFWKDETDFNLALTSCYTPLKNALNGGYYGTRGVMLRIARADEVDFRNDISDVYTVNRFTNSNTNSLTQGMFYQFYNALYRTNSIMQKLEEKKEQFSTDFQNSVKGECLFIRGFYLFQLAKEFKDAPLRLTASQSPSTFPLAKSSQADIWAQAKEDLKTAASLLPITNKIGKPTQGAAYAALGKIYVYEENWQEAINVLEPLTQNPYTYKLVEDFNWNFDDTHENNAESIFELLIEDVGGTDLWGDGENINSTQSNTRPKEYAAAEVGGWYEANPTQQIMDIFWKEKDKDGNFDYRARCSVAWDYEGCTYYQRPFREVFAQDKWKTYWILKYQNWKTQKDEPAPPKSFINERAIRYADVLLMLAEAYMNKGALDTSIGYINQIRRRANLNDYSGPITKEGVFEDLVHQRAIEFFVEGERFYDLRRWGLLEQTLKTCDDTRYKNYQTGKSDNINKFNYFPIPAKELDTNPLCTPSEGW
- glycan array binding signal (z-score) [1]: 2.92
- glycan array binding signal (z-score) [2]: 0.997
- glycan array binding signal (z-score) [3]: 0.573
- glycan array binding signal (z-score) [4]: 0.227
- glycan array binding signal (z-score) [5]: 0.45
- glycan array binding signal (z-score) [6]: -1.03
- glycan array binding signal (z-score) [7]: -0.604
- glycan array binding signal (z-score) [8]: 0.518
- glycan array binding signal (z-score) [9]: -0.667
- glycan array binding signal (z-score) [10]: -0.37
- glycan array binding signal (z-score) [11]: 0.587
- glycan array binding signal (z-score) [12]: 0.147
- glycan array binding signal (z-score) [13]: -0.045
- glycan array binding signal (z-score) [14]: -0.122
- glycan array binding signal (z-score) [15]: 0.21
- glycan array binding signal (z-score) [16]: 0.786
- glycan array binding signal (z-score) [17]: -0.034
- glycan array binding signal (z-score) [18]: -0.955
- glycan array binding signal (z-score) [19]: 0.32
- glycan array binding signal (z-score) [20]: 0.548
- glycan array binding signal (z-score) [21]: -1.04
- glycan array binding signal (z-score) [22]: -0.488
- glycan array binding signal (z-score) [23]: 0.123
- glycan array binding signal (z-score) [24]: -0.21
- glycan array binding signal (z-score) [25]: -0.759
- glycan array binding signal (z-score) [26]: -0.104
- glycan array binding signal (z-score) [27]: -0.322
- glycan array binding signal (z-score) [28]: -0.666
- glycan array binding signal (z-score) [29]: -0.533
- glycan array binding signal (z-score) [30]: -0.121
- glycan array binding signal (z-score) [31]: 0.395
- glycan array binding signal (z-score) [32]: 1.07
- glycan array binding signal (z-score) [33]: 0.438
- glycan array binding signal (z-score) [34]: -0.353
- glycan array binding signal (z-score) [35]: -0.162
- glycan array binding signal (z-score) [36]: -0.713
- glycan array binding signal (z-score) [37]: -0.337
- glycan array binding signal (z-score) [38]: 0.412
